Laboratory results: US20050130197A1, “Homogeneous fluorescence polarization assay for high throughput screening” (priority 2003, published 2005)
Like-named read-outs stand apart in the source and are kept apart here. For part of these data: At least one peptide structure holds a part that was inferred or is arguable (an end, a ring closure or a residue). For part of these data: At least one structure is not confirmed: it was looked up by name or label, or the drawing left a doubt. Some of these results come from one statement about several compounds together. Some compounds share one range, which may span the group rather than tell each member. Values belong to the compound of their own block, whether it stands above or below them. Where a SMILES comes first, the peptide text is derived from it. Where no end group is shown, it is not given here. [ ]: non-standard residue; d: D form. NMeF = CN[C@@H](Cc1ccccc1)C(=O)O

Sequences of proteins named here, by UniProt entry; tags and fusion partners are left off. A change or cut given only in a name is not applied to a line headed by its entry.
UniProt Q9Y5X5: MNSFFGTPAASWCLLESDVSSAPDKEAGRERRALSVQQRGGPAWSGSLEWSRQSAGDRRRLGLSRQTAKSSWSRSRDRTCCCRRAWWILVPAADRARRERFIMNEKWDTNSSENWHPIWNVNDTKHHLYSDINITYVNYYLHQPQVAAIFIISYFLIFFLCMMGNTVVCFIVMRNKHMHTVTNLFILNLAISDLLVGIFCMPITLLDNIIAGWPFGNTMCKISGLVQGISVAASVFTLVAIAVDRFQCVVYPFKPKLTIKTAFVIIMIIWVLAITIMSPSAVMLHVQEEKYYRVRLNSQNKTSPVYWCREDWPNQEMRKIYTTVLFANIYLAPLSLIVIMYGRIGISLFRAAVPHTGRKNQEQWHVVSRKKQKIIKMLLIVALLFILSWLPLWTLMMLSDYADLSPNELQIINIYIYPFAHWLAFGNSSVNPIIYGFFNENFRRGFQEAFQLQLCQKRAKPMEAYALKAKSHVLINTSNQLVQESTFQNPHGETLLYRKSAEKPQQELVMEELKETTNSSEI

Assays:
human NPFF2 receptor [1] = biological target: T1, human NPFF2 receptor (Homo sapiens, UniProt Q9Y5X5); assay: Fluorescence polarization (FP) competition binding assay, TAMRA-NPFF tracer, 0.1% Pluronic F-127; conditions: for assay window of NPFF2 receptor: 10 μM each compound, 0.1% Pluronic F-127, range over the listed compounds
T1 construct: purchased Euroscreen s.a; (Brussels, Belgium)
Method: Human NPFF2 receptor membrane homogenates were diluted in a binding buffer (50 mM HEPES buffer, pH 7.4 and various concentrations of detergents) to the membrane concentration required. In general, the binding assay was performed in a final volume of 40 μl: 20 μl of displacing ligand, 10 μl of fluorescent tracer, and 10 μl of diluted receptor membrane preparation (3.6-4.2 ug protein/well depending on the assay), which were added sequentially. The reaction was incubated at room temperature for 0.5-24 h before FP was measured depending on each experiment.
FP binding data were analyzed and fitted using GraphPad Prism® software (GraphPad Software, Inc., San Diego, Calif.). Competitive binding data was fit to a one-site competitive binding equation using nonlinear regression curve fitting. IC50 values were determined by nonlinear regression analysis of the inhibition curves. Data points in the displacement curves and in the graphs of DMSO, nonionic detergents, Chicago Sky Blue 6B and tartrazine consist of an average of 4-6 repetitions. All error bars represent ±1 standard deviation unit of the spread of the data except for displacement curves, where the error bars represent ±SEM. mP is defined by the following equation: mP=1000×(I∥−I⊥)/(I∥+I⊥) where mP=milli-polarization, I∥=parallel component of the emitted light, and I⊥=perpendicular component of the emitted light. Assay precision was assessed by calculating the Z′ value: Z′=1−[(3*σbound)+(3*σdisplaced)/|(mPbound−mPdisplaced)|] where σ is the standard deviation in the signal, mP: the subscript “bound” corresponds to the signal obtained in the absence of a displacing substance; and the subscript “displaced” corresponds to the signal of a completely displaced ligand (Zhang, J-H. et al., J. Biomol. Screen., (1999) 4, 67-73; Banks, P. et al., J. Biomol. Screen., (2002) 7, 111-117). The denominator of the equation calculates the specific binding expressed in the absolute value of mP difference, and the numerator calculates the precision in both bound and displaced signals. Background correction was done after each analysis by subtracting blank parallel and perpendicular intensities from the respective intensities. According to Z′ value model, the Z′ values of above 0.5 indicate excellent assays.

[2] = biological target: T2, human NPFF2 receptor membranes (Homo sapiens, UniProt Q9Y5X5); assay: In vitro functional FP assay with GDP and GTPγS (GTP binding assay); type: biochemical
T2 construct: purchased Euroscreen s.a; (Brussels, Belgium)

human NPFF2 receptor [3] = biological target: T1, human NPFF2 receptor; conditions: data from Eur. J. Pharmacol. 451: 245-256 (2002); read-out: [125I]Ligand Filtration Human Ki (c); cited from earlier work
[4] = 1 μM displacer, 0.5 nM tracer, 3 mM MgCl2, 3 μM GDP, 60 min

Compound: CC(C)C[C@H](NC(=O)[C@H](N)Cc1ccc(O)cc1)C(=O)N(C)[C@@H](Cc1ccccc1)C(=O)N[C@@H](CCC(N)=O)C(=O)N1CCC[C@H]1C(=O)N[C@@H](CCC(N)=O)C(=O)N[C@@H](CCCNC(=N)N)C(=O)N[C@@H](Cc1ccccc1)C(N)=O [[D-Tyr^1(NMe)Phe^3]NPFF, [D-Tyr^1, (N-Me)Phe^3]NPFF] (H-[dY]L[NMeF]QPQRF-NH2)
assay window, stable for at least four hours (human NPFF2 receptor [1]; 1 μM displacer, 0.5 nM TAMRA-NPFF per well, 0.1% Pluronic in 50 mM HEPES): 181-201 mP | assay window in the absence of GTPγS [2, 4]: 128 mP | assay window in the presence of 5 μM GTPγS [2, 4]: 109 mP | affinity state in in vitro functional assays ([2]; one agonist fixed at 2-3×IC50, other ligand varied, 3 μM GDP and 5 μM GTPγS): biphasic affinity states

Compound: COc1cc(CNC(=O)CCCC/C=C/C(C)C)ccc1O [capsaicin]
assay window of NPFF2 receptor (human NPFF2 receptor [1]): −29 to 32 mP

Compound: CC(C)NCC(O)c1ccc(O)c(O)c1 (stereo not drawn) [isoproterenol]
assay window of NPFF2 receptor (human NPFF2 receptor [1]): −29 to 32 mP

Continued, in another order:

assay window of NPFF2 receptor (human NPFF2 receptor [1]): −29 to 32 mP
Compound: COC(=O)[C@@H]1[C@H]2C[C@H]3c4[nH]c5ccccc5c4CCN3C[C@@H]2CC[C@@H]1O [yobimbine]

Ki (human NPFF2 receptor [1]; FP competition binding, TAMRA-NPFF tracer, human NPFF2 receptor membrane preparation, means ± S.E. of three separate experiments): 5.2 ± 0.9 nM
Compound: APSEPHHPGDQATQDQLAQYYSDLYQYITFVTRPRF-NH2 [Frog PP]
Ki (human NPFF2 receptor [3]): 7 ± 2 nM
